Source: PubChem BioAssay AID485314 (National Center for Advancing Translational Sciences (NCATS), 2010)
The campaign covered roughly 340,000 compounds. About 4,500 (1.3%) were called active. This list was built around the results that the source calls inconclusive (neither active nor inactive); the mix of calls is not that of the screen. Calls follow the shape of the dose curve; as a rule, active = well fitted inhibition curve with a large enough effect; inconclusive = small, poorly fitted or top-dose-only effect, or another doubt; inactive = no such curve, though single readings can be large or run the other way. Potencies of inconclusive entries are doubtful fits and often do not repeat.

Biological target: DNA polymerase beta (Homo sapiens) (UniProt P06746)
Experiment: qHTS Assay for Inhibitors of DNA Polymerase Beta
Details: Pol beta primer extension/strand displacement, fluorescence kinetic; activity change, negative = inhibition: at 114 µM (top of the series)
How it was run: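 10 nM enzyme + cpd, 15 min RT; start with substrate 50 nM final; read 0 min and after 10 min RT. Corrected, normalized data; 4-parameter Hill curve fit.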
% is scaled to controls: 0 for no effect and ±100 for the full control effect; potency is read from the fitted curve at half-maximal effect.

Compound | Potency | activity change, negative = inhibition
Cc1nnc(NC(=O)CSCc2cc(=O)c3ccccc3[nH]2)s1 | inconclusive: 15.8 µM [inhibitor, full curve] | –
O=C(O)c1cccc(N/N=C/C2=C(Cl)c3cc(Cl)ccc3SC2)c1 | inconclusive: 56.2 µM [inhibitor, partial curve, poor fit] | –
Cc1onc(-c2ccccc2Cl)c1C(=O)OCC(=O)c1ccccc1 | inconclusive: 79.4 µM [inhibitor, partial curve] | –
Cc1cc(C)c2cc(CN(Cc3nnnn3C3CCCCC3)CC3CCCO3)c(=O)[nH]c2c1 (stereo not given) | – | inactive: -8.51%
COc1ccc(S(=O)(=O)N2CCN(Cc3ccc(Cl)cc3)CC2)cc1 | inconclusive: 79.4 µM [inhibitor, single point] | –
O=C(CSc1ccc([N+](=O)[O-])cn1)Nc1ccccc1N1CCOCC1 | inconclusive: 100 µM [inhibitor, single point] | –
COc1ccc(NC(=O)Cn2nnc(C(=O)NCc3ccc(C)cc3)c2N)cc1OC | inconclusive: 79.4 µM [inhibitor, single point] | –
Cc1nn(-c2ccc(N3CCCCC3)nn2)c(C)c1CCC(=O)Nc1ccc(F)cc1F | – | inactive: 1.27%
O=C(O)CSc1nc2sc3c(c2c(=O)n1-c1ccccc1)CCC3 | – | inconclusive: -113% [inhibitor]
O=C(N/N=C/C1CC=CCC1)c1cc(-c2cccnc2)nc2ccccc12 (stereo not given) | inconclusive: 3.55 µM [inhibitor, single point] | –
Cc1ccc(NC(=O)CN2CCC(NC(=O)Cc3ccccc3)CC2)cc1C | inconclusive: 4.47 µM [inhibitor, partial curve, poor fit] | –
Cc1cc(C)c(OCCCNCc2ccccc2)c(Br)c1 | inconclusive: 79.4 µM [inhibitor, single point] | –
CC(C)n1c(SCC(=O)Nc2nncs2)nnc1-c1ccco1 | active: 20 µM | –
Cn1c2ccccc2c2nnc(SCC(=O)NCc3ccoc3)nc21 | inconclusive: 10 µM [inhibitor, partial curve] | –
O=C(NN1CCCCC1)c1cccc2ccccc12 | inconclusive: 79.4 µM [inhibitor, single point] | –
Cc1ccc(NC(=O)C2CCN(S(=O)(=O)c3ccc4c(c3)NC(=O)C(C)S4)CC2)c(Cl)c1 (stereo not given) | inconclusive: 2.24 µM [inhibitor, partial curve] | –
CCCn1c(=O)c2ccccc2n2c(SCc3cc(=O)oc4ccc5ccccc5c34)nnc12 | inconclusive: 25.1 µM [inhibitor, full curve, poor fit] | –
CCOc1ccc(-c2cc(C)n3nc(C(N)=O)cc3n2)cc1 | inconclusive: 20 µM [inhibitor, partial curve] | –
CCOC(=O)c1cnn(-c2nc(OC)cc(OC)n2)c1C(F)(F)F | – | inactive: 78.4%
COc1ccc(NC(=O)Cn2cnc3c(cnn3-c3ccc(C)c(C)c3)c2=O)c(OC)c1 | inconclusive: 3.98 µM [inhibitor, single point] | –
O=C(NCc1cccs1)c1ccc2c(c1)N(Cc1cccc(F)c1)C(=O)c1ccccc1S2 | inconclusive: 79.4 µM [inhibitor, partial curve] | –
Oc1ccc2ccccc2c1N=Nc1ccccn1 | inconclusive: 35.5 µM [inhibitor, partial curve] | –
COc1ccc(Cn2c(O)c(C=Nc3ccccc3C(=O)O)c3ccccc3c2=O)cc1 | inconclusive: 89.1 µM [inhibitor, single point] | –
CCOC(=O)Cc1cc(-c2ccc(F)cc2)nc2ccc3ccccc3c12 | inconclusive: 15.8 µM [inhibitor, partial curve] | –

Among those listed so far, ten contain sulfur:
Compound | Potency | activity change, negative = inhibition
Cc1nnc(NC(=O)CSCc2cc(=O)c3ccccc3[nH]2)s1 | inconclusive: 15.8 µM [inhibitor, full curve] | –
O=C(O)c1cccc(N/N=C/C2=C(Cl)c3cc(Cl)ccc3SC2)c1 | inconclusive: 56.2 µM [inhibitor, partial curve, poor fit] | –
COc1ccc(S(=O)(=O)N2CCN(Cc3ccc(Cl)cc3)CC2)cc1 | inconclusive: 79.4 µM [inhibitor, single point] | –
O=C(CSc1ccc([N+](=O)[O-])cn1)Nc1ccccc1N1CCOCC1 | inconclusive: 100 µM [inhibitor, single point] | –
O=C(O)CSc1nc2sc3c(c2c(=O)n1-c1ccccc1)CCC3 | – | inconclusive: -113% [inhibitor]
CC(C)n1c(SCC(=O)Nc2nncs2)nnc1-c1ccco1 | active: 20 µM | –
Cn1c2ccccc2c2nnc(SCC(=O)NCc3ccoc3)nc21 | inconclusive: 10 µM [inhibitor, partial curve] | –
Cc1ccc(NC(=O)C2CCN(S(=O)(=O)c3ccc4c(c3)NC(=O)C(C)S4)CC2)c(Cl)c1 (stereo not given) | inconclusive: 2.24 µM [inhibitor, partial curve] | –
CCCn1c(=O)c2ccccc2n2c(SCc3cc(=O)oc4ccc5ccccc5c34)nnc12 | inconclusive: 25.1 µM [inhibitor, full curve, poor fit] | –
O=C(NCc1cccs1)c1ccc2c(c1)N(Cc1cccc(F)c1)C(=O)c1ccccc1S2 | inconclusive: 79.4 µM [inhibitor, partial curve] | –

Next part

Compound | Potency | activity change, negative = inhibition
Cc1ccc(Cl)c(OCCN2CCc3ccccc3C2)c1 | inconclusive: 100 µM [inhibitor, single point] | –
C1CCC(NC2=NCCC2)CC1 | – | inactive: -2.08%
O=S(=O)(c1ccccc1)N1CCSC1c1ccco1 (stereo not given) | active: 44.7 µM | –
Cc1ccccc1CNC(=O)C(C)N(c1ccccc1)S(C)(=O)=O (stereo not given) | – | inactive: -1.94%
COc1ccc(NC(=O)C2CC2)cc1OC1CCCC1 | inconclusive: 89.1 µM [inhibitor, single point] | –
O=C1CCCC2=C1C(c1cccs1)Nc1ccc3ncccc3c12 (stereo not given) | inconclusive: 0.282 µM [inhibitor, full curve, poor fit] | –
Cc1oc(-c2cccc(Cl)c2)nc1CS(=O)(=O)CC(=O)NC(C)CCc1ccccc1 (stereo not given) | – | inactive: -6.48%
Cc1cc(=O)oc2cc(NC(=O)C3COc4ccccc4O3)ccc12 (stereo not given) | inconclusive: 22.4 µM [inhibitor, partial curve, poor fit] | –
COc1cc(/C=N/NC(=O)C(Cc2c[nH]c3ccccc23)NC(=O)OCc2ccccc2)cc([N+](=O)[O-])c1O (stereo not given) | active: 50.1 µM | –
CC(C)NC(=O)c1sc2nc(-c3cccs3)cc(-c3cccs3)c2c1N | – | inactive: 6.26%
CCOc1ccc(C(=O)Nc2ccc(-c3cc4ccccc4oc3=O)c(C)c2)cc1[N+](=O)[O-] | inconclusive: 12.6 µM [inhibitor, full curve, poor fit] | –
CCN(CC)c1ccc(C(=O)NC(=S)N2CCN(Cc3ccc4c(c3)OCO4)CC2)cc1 | inconclusive: 79.4 µM [inhibitor, single point] | –
COc1ccccc1NC(=O)c1c(NCc2ccc(C)o2)sc2c1CCCCC2 | inconclusive: 89.1 µM [inhibitor, single point] | –
CC(C)(C)C(=O)COC(=O)c1ccc(O)cc1 | – | inactive: 1.42%
COc1ccc(-n2cc(C(=O)NCCc3cc(OC)ccc3OC)c3ccccc3c2=O)cc1 | inconclusive: 31.6 µM [inhibitor, full curve] | –
CCS(=O)(=O)CCSc1nc(C)cc(C)n1 | – | inactive: 30.9%
Cc1cc(C(=O)COC(=O)c2ccc([N+](=O)[O-])o2)c(C)n1CC1CCCO1 (stereo not given) | inconclusive: 22.4 µM [inhibitor, full curve] | –
COC(=O)C(C)N1C(=O)S/C(=C\c2ccc(-c3ccc(C(=O)O)cc3C)o2)C1=O (stereo not given) | active: 39.8 µM | –
CCOc1ccc(OCCC(=O)NNC(=O)c2nn(C)c(=O)c3ccccc23)cc1 | active: 35.5 µM | –
COc1ccc2c(c1)c(=O)c(S(=O)(=O)c1ccccc1)cn2CC(=O)Nc1ccc(C)c(Cl)c1 | – | inactive: 4.37%
Cc1nc2nc(NC(=O)c3ccc(C(C)(C)C)cc3)[nH]n2c(=O)c1Cc1ccccc1 | – | inactive: -0.803%
COc1ccc(OC)c(C2CC(c3ccccc3)=NN2C(=S)Nc2ccccc2)c1 (stereo not given) | inconclusive: 0.282 µM [inhibitor, full curve] | –
Cc1ccc(-n2c(=O)c3c4c(sc3n(Cc3cc(=O)n5ccccc5n3)c2=O)CCC4)cc1C | inconclusive: 89.1 µM [inhibitor, single point] | –

Compound | Potency | activity change, negative = inhibition
Cc1nc(Oc2ccc(S(=O)(=O)N3CCOCC3)cc2Cl)c2c3c(sc2n1)CCCC3 | inconclusive: 15.8 µM [inhibitor, partial curve] | –
Cc1cccc(NC2=C/C(=N/S(=O)(=O)c3cccs3)c3ccccc3C2=O)c1 | – | inactive: -0.0277%
CC1CCN(c2ccc(C=O)o2)CC1 | inconclusive: 89.1 µM [inhibitor, single point] | –
CCOC(=O)c1oc2ccccc2c1CN1CCN(C)CC1 | – | inactive: -26.9%
O=C1OC(c2ccc3c(c2)OCO3)=N/C1=C\c1ccc(C(=O)O)cc1 | inconclusive: 39.8 µM [inhibitor, partial curve] | –
CC(=O)c1ccc(NS(=O)(=O)c2c(C)nc3scc(C)n3c2=O)cc1 | – | inactive: 18.2%
CSc1ncc(C(=O)Nc2ccc(C)c(Cl)c2)c(-c2ccccc2)n1 | inconclusive: 15.8 µM [inhibitor, full curve, poor fit] | –
COc1ccc(Cl)cc1NC(=O)N(C)CCc1c(C)nn(C)c1C | – | inactive: 26.3%
Cc1ccc2oc(-c3ccc(C)c(NC(=O)C(C)(C)Oc4ccc(Cl)cc4)c3)nc2c1 | – | inactive: -11.4%
COC(=O)c1sc(N2C(=O)C(O)=C(C(=O)c3ccc(C)o3)C2c2ccc([N+](=O)[O-])cc2)nc1C (stereo not given) | – | inactive: 2.89%
O=C(NNC(=O)c1ccc(-c2ccccc2)cc1)Nc1ccc(F)cc1F | active: 25.1 µM | –
O=C(NCCN1CCCCCC1)C1CCC(CNS(=O)(=O)c2cccc3cccnc23)CC1 (stereo not given) | inconclusive: 39.8 µM [inhibitor, partial curve] | –
CCS(=O)(=O)N1CCN(c2ccc(Cl)cc2[N+](=O)[O-])CC1 | inconclusive: 89.1 µM [inhibitor, single point] | –
CCCC(=O)Nc1ccc(S(=O)(=O)Nc2cc(C)nc(C)n2)cc1 | – | inactive: 15.2%
COc1ccc(C(=O)NNC(=O)CSc2nnc(C)n2CC2CCCO2)cc1 (stereo not given) | inconclusive: 100 µM [inhibitor, single point] | –
CCOC(=O)c1cc(=O)n2[nH]c(-c3ccc(C)cc3)cc2n1 | – | inactive: -10.4%
CCC1=NN2C(=N)/C(=C\c3ccc(OCCOc4ccc(NC(C)=O)cc4)cc3)C(=O)N=C2S1 | – | inactive: -16.1%
Nc1c(C(=O)Nc2ccc(C(F)(F)F)cc2)sc2nc(-c3cccs3)ccc12 | inconclusive: 17.8 µM [inhibitor, single point] | –
O=C(COC(=O)CCCc1nc2ccccc2s1)NC(=O)NCc1ccco1 | inconclusive: 25.1 µM [inhibitor, full curve, poor fit] | –
COc1cccc(-c2nc(SCc3cccc(Br)c3)n3[nH]c(=O)cc3n2)c1 | active: 12.6 µM | –
COc1cc([N+](=O)[O-])ccc1NC(=O)Nc1cnccn1 | – | inactive: 25.2%
Cc1ccc(-c2nc3cc(NC(=O)Cc4ccc(Cl)cc4)ccc3o2)cc1 | – | inconclusive: -95% [inhibitor]

As entered above.
CC1CCN(c2ccc(C=O)o2)CC1 – Potency: inconclusive: 89.1 µM [inhibitor, single point]
Cc1ccc2oc(-c3ccc(C)c(NC(=O)C(C)(C)Oc4ccc(Cl)cc4)c3)nc2c1 – activity change, negative = inhibition: inactive: -11.4%
